This passage reports binding results from patent US20210380703A1.

Results are given in words; binding and its absence hold for the method and conditions named. Sequences can lack the tags named with a protein.

The target of experiment [1] is T1, His-tagged Mouse ACVR2B (mouse) (UniProt P27040).
T1 sequence (looked up): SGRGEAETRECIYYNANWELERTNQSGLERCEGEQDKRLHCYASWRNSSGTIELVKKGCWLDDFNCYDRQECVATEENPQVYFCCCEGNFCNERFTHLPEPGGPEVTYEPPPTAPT
Kind of experiment: ELISA, coated His-tagged mouse ACVR2B, 10-point.

Experiment [2] deals with T2, His-tagged Human ACVR2B (human) (UniProt Q13705).
T2 sequence (looked up): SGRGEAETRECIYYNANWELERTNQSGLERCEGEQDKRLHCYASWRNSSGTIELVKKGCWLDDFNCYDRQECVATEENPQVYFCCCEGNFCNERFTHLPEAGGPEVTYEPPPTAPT
Kind of experiment: ELISA, coated His-tagged human ACVR2B, 10-point.

Experiment [3] addresses T2, His-tagged Human ACVR2B (human). Kind of experiment: ELISA, coated His-tagged antigen, 10 pt.
Experiment [4] concerns the target T1, His-tagged Mouse ACVR2B (mouse). Kind of experiment: ELISA, coated His-tagged antigen, 10 pt.

B1: 376_A06 (antibody, V domains shown)
VH: EVQLLESGGGLVQPGGSLRLSCAASGFTFDSYSMNWVRQAPGKGLEWVSGINYNSGYTSYADSVKGRFTISRDNSKNTLYLQMNSLRAEDTAVYYCARSATWHDTALDYWGQGTLVTVSS
VL: DIQMTQSPSSLSASVGDRVTITCRASQSILSYLNWYQQKPGKAPKLVIYYVSNRASGVPSRFSGSGSGTDFTLTISSLQPEDFATYYCQQSYDNPLTFGGGTKVEIK
B1: the binding entry in experiment [1] and in experiment [2] was “no binding (tested: 1 µM (top of the dilution series))” throughout.

B2: 366_D01 (antibody, V domains shown)
VH: EVQLLESGGGLVQPGGSLRLSCAASGFTFSSYGMHWVRQAPGKGLEWVSSINYNGGYTGYADSVKGRFTISRDNSKNTLYLQMNSLRAEDTAVYYCARAANWHDTHLDYWGQGTLVTVSS
VL: DIQMTQSPSSLSASVGDRVTITCRASQSILTYVNWYQQKPGKAPKLLIYAATSRASGVPSRFSGSGSGTDFTLTISSLQPEDFATYYCQQSYENPLTFGGGTKVEIK
Turning to B2, the binding entry in experiment [3] and in experiment [4] was “no binding (tested: 1 uM)” each time.

B3: 373_E06 (antibody, V domains shown)
VH: EVQLLESGGGLVQPGGSLRLSCAASGFTFDSYSMNWVRQAPGKGLEWVAGINYNSGYKSYADSVKGRFTISRDNSKNTLYLQMNSLRAEDTAVYYCARSATWHDTHLDYWGQGTLVTVSS
VL: DIQMTQSPSSLSASVGDRVTITCRASQSILRYLNWYQQKPGKAPKLLIYAATSLHSGVPSRFSGSGSGTDFTLTISSLQPEDFATYYCQQSYDNPLTFGGGTKVEIK
B3: the binding entry in experiment [1] and in experiment [2] was “no binding (tested: 1 µM (top of the dilution series))” each time.

B4: 376_B06 (antibody, V domains shown)
VH: EVQLLESGGGLVQPGGSLRLSCAASGFTFSSYSMNWVRQAPGKGLEWVAGINYNSGYKGYADSVKGRFTISRDNSKNTLYLQMNSLRAEDTAVYYCARSATWHDTHLDYWGQGTLVTVSS
VL: DIQMTQSPSSLSASVGDRVTITCRASQSILTYLNWYQQKPGKAPKLLIYAATSRASGVPSRFSGSGSGTDFTLTISSLQPEDFATYYCQQSYDLPLTFGGGTKVEIK
B4: the binding result in experiment [1] and in experiment [2] was “no binding (tested: 1 µM (top of the dilution series))” throughout.

B5: 369_A07 (antibody, V domains shown)
VH: EVQLLESGGGLVQPGGSLRLSCAASGFTFSSYSMNWVRQAPGKGLEWVAGINYNGGYKGYADSVKGRFTISRDNSKNTLYLQMNSLRAEDTAVYYCARGANWHDTALDYWGQGTLVTVSS
VL: DIQMTQSPSSLSASVGDRVTITCRASQSILSYLNWYQQKPGKAPKLVIYAATSRASGVPSRFSGSGSGTDFTLTISSLQPEDFATYYCQQSYESPLTFGGGTKVEIK
Turning to B5, the binding result in experiment [3] and in experiment [4] was “no binding (tested: 1 uM)” in each case.

B6: 373_A03 (antibody, V domains shown)
VH: EVQLLESGGGLVQPGGSLRLSCAASGFTFSDYSMNWVRQAPGKGLEWVANINYNGGYTGYADSVKGRFTISRDNSKNTLYLQMNSLRAEDTAVYYCARGANWHDTALDYWGQGTLVTVSS
VL: DIQMTQSPSSLSASVGDRVTITCRASQSILSYLNWYQQKPGKAPKLVIYAATSRASGVPSRFSGSGSGTDFTLTISSLQPEDFATYYCQQSYDNPLTFGGGTKVEIK
B6: the binding entry in experiment [3] and in experiment [4] was “no binding (tested: 1 uM)” throughout.

B7: 373_G05 (antibody, V domains shown)
VH: EVQLLESGGGLVQPGGSLRLSCAASGFTFSSYSMNWVRQAPGKGLEWVAGINYNGGYTSYADSVKGRFTISRDNSKNTLYLQMNSLRAEDTAVYYCARSATWHDTHLDYWGQGTLVTVSS
VL: DIQMTQSPSSLSASVGDRVTITCRASQSILSYLNWYQQKPGKAPKLLIYAATSLASGVPSRFSGSGSGTDFTLTISSLQPEDFATYYCQQSYELPLTFGGGTKVEIK
As for B7, the binding result in experiment [1] and in experiment [2] was “no binding (tested: 1 µM (top of the dilution series))” throughout.

B8: 371_C12 (antibody, V domains shown)
VH: EVQLLESGGGLVQPGGSLRLSCAASGFTFSSYSMNWVRQAPGKGLEWVAGINYNSGYKSYADSVKGRFTISRDNSKNTLYLQMNSLRAEDTAVYYCARGANWHDTHLDYWGQGTLVTVSS
VL: DIQMTQSPSSLSASVGDRVTITCRASQSIVSYVNWYQQKPGKAPKLLIYAATSRASGVPSRFSGSGSGTDFTLTISSLQPEDFATYYCQQSYDTPLTFGGGTKVEIK
Consider B8, for which the binding result in experiment [3] and in experiment [4] was “no binding (tested: 1 uM)” throughout.

B9: 372_D03 (antibody, V domains shown)
VH: EVQLLESGGGLVQPGGSLRLSCAASGFTFSSYSMNWVRQAPGKGLEWVAGINYNSGYKSYADSVKGRFTISRDNSKNTLYLQMNSLRAEDTAVYYCARGANWHDTALDYWGQGTLVTVSS
VL: DIQMTQSPSSLSASVGDRVTITCRASQSILSYVNWYQQKPGKAPKLVIYAVTSRHSGVPSRFSGSGSGTDFTLTISSLQPEDFATYYCQQSYDSPLTFGGGTKVEIK
B9: the binding entry in experiment [3] and in experiment [4] was “no binding (tested: 1 uM)” throughout.

B10: 376_B01 (antibody, V domains shown)
VH: EVQLLESGGGLVQPGGSLRLSCAASGFTFDSYSMNWVRQAPGKGLEWVAGINYNGGYTSYADSVKGRFTISRDNSKNTLYLQMNSLRAEDTAVYYCARSATWHDTHLDYWGQGTLVTVSS
VL: DIQMTQSPSSLSASVGDRVTITCRASQSILTYVNWYQQKPGKAPKLVIYAATSRASGVPSRFSGSGSGTDFTLTISSLQPEDFATYYCQQSYNLPLTFGGGTKVEIK
With B10, the binding entry in experiment [1] and in experiment [2] was “no binding (tested: 1 µM (top of the dilution series))” throughout.

B11: 369_G07 (antibody, V domains shown)
VH: EVQLLESGGGLVQPGGSLRLSCAASGFTFSSYSMNWVRQAPGKGLEWVAGINYNGGYTSYADSVKGRFTISRDNSKNTLYLQMNSLRAEDTAVYYCARSATWHDTHLDYWGQGTLVTVSS
VL: DIQMTQSPSSLSASVGDRVTITCRASQSILTYVNWYQQKPGKAPKLVIYAATSRASGVPSRFSGSGSGTDFTLTISSLQPEDFATYYCQQSYDNPLTFGGGTKVEIK
Take B11: the binding result in experiment [1] and in experiment [2] was “no binding (tested: 1 µM (top of the dilution series))” in each case.

B12: 370_H02 (antibody, V domains shown)
VH: EVQLLESGGGLVQPGGSLRLSCAASGFTFDSYSMNWVRQAPGKGLEWVSGINYNSGYTSYADSVKGRFTISRDNSKNTLYLQMNSLRAEDTAVYYCARGANWHDTHLDYWGQGTLVTVSS
VL: DIQMTQSPSSLSASVGDRVTITCRASQSILTYLNWYQQKPGKAPKLLIYAATSRASGVPSRFSGSGSGTDFTLTISSLQPEDFATYYCQQSYESPLTFGGGTKVEIK
With B12, the binding entry in experiment [3] and in experiment [4] was “no binding (tested: 1 uM)” in each case.

B13: 365_F07 (antibody, V domains shown)
VH: EVQLLESGGGLVQPGGSLRLSCAASGFTFSSYSMNWVRQAPGKGLEWVSNINYNGGYKSYADSVKGRFTISRDNSKNTLYLQMNSLRAEDTAVYYCARSATWHDTALDYWGQGTLVTVSS
VL: DIQMTQSPSSLSASVGDRVTITCRASQSILSYVNWYQQKPGKAPKLVIYAATSRASGVPSRFSGSGSGTDFTLTISSLQPEDFATYYCQQSYDLPLTFGGGTKVEIK
As for B13, the binding entry in experiment [1] and in experiment [2] was “no binding (tested: 1 µM (top of the dilution series))” throughout.

B14: 371_G11 (antibody, V domains shown)
VH: EVQLLESGGGLVQPGGSLRLSCAASGFTFSSYGMNWVRQAPGKGLEWVSNINYNSGYTSYADSVKGRFTISRDNSKNTLYLQMNSLRAEDTAVYYCARGANWHDTALDYWGQGTLVTVSS
VL: DIQMTQSPSSLSASVGDRVTITCRASQSILSYVNWYQQKPGKAPKLLIYAATSLASGVPSRFSGSGSGTDFTLTISSLQPEDFATYYCQQSYDSPLTFGGGTKVEIK
Regarding B14, the binding entry in experiment [3] and in experiment [4] was “no binding (tested: 1 uM)” each time.

B15: 365_D05 (antibody, V domains shown)
VH: EVQLLESGGGLVQPGGSLRLSCAASGFTFDSYSMNWVRQAPGKGLEWVAGINYNGGYTSYADSVKGRFTISRDNSKNTLYLQMNSLRAEDTAVYYCARSATWHDTHLDYWGQGTLVTVSS
VL: DIQMTQSPSSLSASVGDRVTITCRASQSILTYVNWYQQKPGKAPKLLIYAATSRASGVPSRFSGSGSGTDFTLTISSLQPEDFATYYCQQSYNSPLTFGGGTKVEIK
Regarding B15, the binding result in experiment [1] and in experiment [2] was “no binding (tested: 1 µM (top of the dilution series))” throughout.

B16: 372_B02 (antibody, V domains shown)
VH: EVQLLESGGGLVQPGGSLRLSCAASGFTFSSYSMNWVRQAPGKGLEWVSGINYNSGYTSYADSVKGRFTISRDNSKNTLYLQMNSLRAEDTAVYYCARGANWHDTALDYWGQGTLVTVSS
VL: DIQMTQSPSSLSASVGDRVTITCRASQSILSYVNWYQQKPGKAPKLLIYAVTSLASGVPSRFSGSGSGTDFTLTISSLQPEDFATYYCQQSYETPLTFGGGTKVEIK
On to B16, for which the binding result in experiment [3] and in experiment [4] was “no binding (tested: 1 uM)” in each case.
